Laboratory results: PubChem BioAssay AID1224829 (NIAID, 2016)
Aim: 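Follow-up of TLR4-NF-kappaB regulators using six separate siRNAs for each gene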 (follow-up of hits). Cell system: mouse RAW264.7 G9 macrophage reporter cells. Reagent: single siRNA against mouse genes, 100 nM. Duration: 2 days of siRNA knock-down, then 40 min of LPS before fixing. Treatment: LPS (Salmonella minnesota R595) at 10 ng/ml. Measured: 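High-content images after 40 min LPS exposure; GFP-p65 nucleus to surrounding ring signal ratio, normalised to plate median and non-targeting control wells, expressed as z-score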. Reading the numbers: p65 translocation z-score and gene median z-score, per vendor: higher = more nuclear NF-kappaB p65 after LPS. Hit rule: 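An siRNA is called active when the mean z-score of its two replicates is above 2 or below -2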. Calls: active = changed p65 translocation (either direction); inactive = no clear change.
This is a random part of about 3,800 reagents. 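Calls cover raised and lowered translocation; gene median uses one vendor's three siRNAs; qiagen siRNAs acted more weakly than ambion siRNAs.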 Entries without a mark were called inactive. The numbers tell different reagents against one gene apart.

no.	target gene	reagent no.	siRNA vendor or control pool	p65 translocation z-score, replicate mean	p65 translocation z-score, replicate 1	p65 translocation z-score, replicate 2	gene median z-score, per vendor
1	Cpt1b (GeneID 12895)	1	ambion single siRNA	0.627	1.61	-0.356	-2.49
2	Cpt1b (GeneID 12895)	2	ambion single siRNA	-2.49 (active)	-0.959	-4.03	-2.49
3	Cpt1b (GeneID 12895)	3	ambion single siRNA	-5.7 (active)	-4.42	-6.97	-2.49
4	Cpt1b (GeneID 12895)	4	qiagen single siRNA	0.648	-0.587	1.88	0.19
5	Cpt1b (GeneID 12895)	5	qiagen single siRNA	0.645	0.989	0.301	0.19
6	Cpt1b (GeneID 12895)	6	qiagen single siRNA	-0.0514	-0.182	0.0788	0.19
7	Cubn (GeneID 65969)	1	qiagen single siRNA	-1	-2.26	0.258	-1.17
8	Cubn (GeneID 65969)	2	qiagen single siRNA	-0.53	-1.17	0.105	-1.17
9	Cubn (GeneID 65969)	3	qiagen single siRNA	-2.71 (active)	-2.71		-1.17
10	Adam10 (GeneID 11487)	1	ambion single siRNA	1.3	2.31	0.295	-0.109
11	Adam10 (GeneID 11487)	2	ambion single siRNA	-0.802	-0.115	-1.49	-0.109
12	Adam10 (GeneID 11487)	3	ambion single siRNA	-0.946	-1.79	-0.104	-0.109
13	Adam10 (GeneID 11487)	4	qiagen single siRNA	-1.05	-1.73	-0.375	-1.4
14	Adam10 (GeneID 11487)	5	qiagen single siRNA	-0.726	-1.31	-0.141	-1.4
15	Adam10 (GeneID 11487)	6	qiagen single siRNA	-1.61	-1.73	-1.49	-1.4
16	Htra2 (GeneID 64704)	1	ambion single siRNA	-0.159	0.24	-0.559	-0.41
17	Htra2 (GeneID 64704)	2	ambion single siRNA	-2.88 (active)	-3.34	-2.43	-0.41
18	Htra2 (GeneID 64704)	3	ambion single siRNA	0.00995	-0.261	0.281	-0.41
19	Htra2 (GeneID 64704)	4	qiagen single siRNA	2.61 (active)	2.37	2.85	1.36
20	Htra2 (GeneID 64704)	5	qiagen single siRNA	-0.703	-1.61	0.202	1.36
21	Htra2 (GeneID 64704)	6	qiagen single siRNA	1.86	0.357	3.35	1.36
22	Smad1 (GeneID 17125)	1	ambion single siRNA	-0.41	-0.0361	-0.784	-0.585
23	Smad1 (GeneID 17125)	2	ambion single siRNA	0.38	1.15	-0.387	-0.585
24	Smad1 (GeneID 17125)	3	ambion single siRNA	-1.42	-2	-0.835	-0.585
25	Smad1 (GeneID 17125)	4	qiagen single siRNA	2.43 (active)	2.44	2.42	1.23
26	Smad1 (GeneID 17125)	5	qiagen single siRNA	0.0457	-1.14	1.23	1.23
27	Smad1 (GeneID 17125)	6	qiagen single siRNA	-8.52 (active)	-8.52		1.23
28	Txnl4a (GeneID 27366)	1	ambion single siRNA	-0.317	1.1	-1.73	-1.19
29	Txnl4a (GeneID 27366)	2	ambion single siRNA	-0.706	0.99	-2.4	-1.19
30	Txnl4a (GeneID 27366)	3	ambion single siRNA	-3.49 (active)	-0.638	-6.35	-1.19
31	Txnl4a (GeneID 27366)	4	qiagen single siRNA	-0.596	-1.24	0.0472	-0.00703
32	Txnl4a (GeneID 27366)	5	qiagen single siRNA	1.86	1.16	2.56	-0.00703
33	Txnl4a (GeneID 27366)	6	qiagen single siRNA	-0.342	-0.623	-0.0613	-0.00703
34	Bmp2 (GeneID 12156)	1	ambion single siRNA	-2.35 (active)	-2.87	-1.82	-1.77
35	Bmp2 (GeneID 12156)	2	ambion single siRNA	-0.856	-1.71	0.000843	-1.77
36	Bmp2 (GeneID 12156)	3	ambion single siRNA	-1.83	-2.17	-1.49	-1.77
37	Bmp2 (GeneID 12156)	4	qiagen single siRNA	2.62 (active)	1.82	3.41	0.727
38	Bmp2 (GeneID 12156)	5	qiagen single siRNA	1.79	-0.371	3.96	0.727
39	Bmp2 (GeneID 12156)	6	qiagen single siRNA	-1.71	-1.11	-2.31	0.727
40	H2ac25 (GeneID 319162)	1	ambion single siRNA	2.12 (active)	2.52	1.72	0.0174
41	H2ac25 (GeneID 319162)	2	ambion single siRNA	0.0174	1.2	-1.17	0.0174
42	H2ac25 (GeneID 319162)	3	ambion single siRNA	-2.58 (active)	-2.62	-2.54	0.0174
43	H2ac25 (GeneID 319162)	4	qiagen single siRNA	3.34 (active)	3.31	3.36	0.434
44	H2ac25 (GeneID 319162)	5	qiagen single siRNA	-0.437	-0.563	-0.31	0.434
45	H2ac25 (GeneID 319162)	6	qiagen single siRNA	0.434	0.835	0.0332	0.434
46	Pwp2 (GeneID 110816)	1	ambion single siRNA	-2.32 (active)	-2.25	-2.39	-2.32
47	Pwp2 (GeneID 110816)	2	ambion single siRNA	-1.62	-2.25	-0.979	-2.32
48	Pwp2 (GeneID 110816)	3	ambion single siRNA	-4.1 (active)	-5.73	-2.47	-2.32
49	Pwp2 (GeneID 110816)	4	qiagen single siRNA	2.01 (active)	0.902	3.11	-0.272
50	Pwp2 (GeneID 110816)	5	qiagen single siRNA	-1.04	0.138	-2.22	-0.272
51	Pwp2 (GeneID 110816)	6	qiagen single siRNA	-1.06	-1.43	-0.682	-0.272

Ordered by “p65 translocation z-score, replicate mean” (lowest first): some entries from above
target gene	reagent no.	siRNA vendor or control pool	p65 translocation z-score, replicate mean	p65 translocation z-score, replicate 1	p65 translocation z-score, replicate 2	gene median z-score, per vendor
Cubn (GeneID 65969)	3	qiagen single siRNA	-2.71 (active)	-2.71		-1.17
Cubn (GeneID 65969)	1	qiagen single siRNA	-1	-2.26	0.258	-1.17
Cubn (GeneID 65969)	2	qiagen single siRNA	-0.53	-1.17	0.105	-1.17
Cpt1b (GeneID 12895)	6	qiagen single siRNA	-0.0514	-0.182	0.0788	0.19
Adam10 (GeneID 11487)	1	ambion single siRNA	1.3	2.31	0.295	-0.109
